The supplement of paper PMC10849652
This is one part of the list.

The chains behind the UniProt entries cited, without tags or fusion partners. Where a name states a change or a piece, a line headed by the entry shows the natural chain unless it says otherwise.
UniProt P30039: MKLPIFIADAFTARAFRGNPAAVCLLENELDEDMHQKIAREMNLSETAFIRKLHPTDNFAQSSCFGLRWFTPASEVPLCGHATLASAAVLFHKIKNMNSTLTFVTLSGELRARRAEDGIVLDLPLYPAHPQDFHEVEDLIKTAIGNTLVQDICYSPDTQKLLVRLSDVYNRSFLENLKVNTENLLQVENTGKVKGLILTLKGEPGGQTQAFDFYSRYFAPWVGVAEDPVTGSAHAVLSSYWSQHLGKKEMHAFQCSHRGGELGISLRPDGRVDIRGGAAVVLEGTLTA
UniProt Q9UHG3: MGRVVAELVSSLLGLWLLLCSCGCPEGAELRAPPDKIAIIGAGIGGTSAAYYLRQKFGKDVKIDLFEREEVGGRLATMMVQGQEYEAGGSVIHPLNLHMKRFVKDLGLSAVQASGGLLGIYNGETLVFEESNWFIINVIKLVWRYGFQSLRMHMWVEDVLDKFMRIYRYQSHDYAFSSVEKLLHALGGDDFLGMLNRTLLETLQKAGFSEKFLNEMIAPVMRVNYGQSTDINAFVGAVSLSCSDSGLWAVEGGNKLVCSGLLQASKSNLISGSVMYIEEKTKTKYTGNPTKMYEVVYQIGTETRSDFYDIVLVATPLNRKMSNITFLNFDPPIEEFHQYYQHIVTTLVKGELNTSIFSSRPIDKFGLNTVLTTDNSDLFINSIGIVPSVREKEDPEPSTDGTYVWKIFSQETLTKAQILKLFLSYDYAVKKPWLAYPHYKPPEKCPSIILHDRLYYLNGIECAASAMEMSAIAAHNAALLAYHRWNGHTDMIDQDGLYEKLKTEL
UniProt Q96RG2: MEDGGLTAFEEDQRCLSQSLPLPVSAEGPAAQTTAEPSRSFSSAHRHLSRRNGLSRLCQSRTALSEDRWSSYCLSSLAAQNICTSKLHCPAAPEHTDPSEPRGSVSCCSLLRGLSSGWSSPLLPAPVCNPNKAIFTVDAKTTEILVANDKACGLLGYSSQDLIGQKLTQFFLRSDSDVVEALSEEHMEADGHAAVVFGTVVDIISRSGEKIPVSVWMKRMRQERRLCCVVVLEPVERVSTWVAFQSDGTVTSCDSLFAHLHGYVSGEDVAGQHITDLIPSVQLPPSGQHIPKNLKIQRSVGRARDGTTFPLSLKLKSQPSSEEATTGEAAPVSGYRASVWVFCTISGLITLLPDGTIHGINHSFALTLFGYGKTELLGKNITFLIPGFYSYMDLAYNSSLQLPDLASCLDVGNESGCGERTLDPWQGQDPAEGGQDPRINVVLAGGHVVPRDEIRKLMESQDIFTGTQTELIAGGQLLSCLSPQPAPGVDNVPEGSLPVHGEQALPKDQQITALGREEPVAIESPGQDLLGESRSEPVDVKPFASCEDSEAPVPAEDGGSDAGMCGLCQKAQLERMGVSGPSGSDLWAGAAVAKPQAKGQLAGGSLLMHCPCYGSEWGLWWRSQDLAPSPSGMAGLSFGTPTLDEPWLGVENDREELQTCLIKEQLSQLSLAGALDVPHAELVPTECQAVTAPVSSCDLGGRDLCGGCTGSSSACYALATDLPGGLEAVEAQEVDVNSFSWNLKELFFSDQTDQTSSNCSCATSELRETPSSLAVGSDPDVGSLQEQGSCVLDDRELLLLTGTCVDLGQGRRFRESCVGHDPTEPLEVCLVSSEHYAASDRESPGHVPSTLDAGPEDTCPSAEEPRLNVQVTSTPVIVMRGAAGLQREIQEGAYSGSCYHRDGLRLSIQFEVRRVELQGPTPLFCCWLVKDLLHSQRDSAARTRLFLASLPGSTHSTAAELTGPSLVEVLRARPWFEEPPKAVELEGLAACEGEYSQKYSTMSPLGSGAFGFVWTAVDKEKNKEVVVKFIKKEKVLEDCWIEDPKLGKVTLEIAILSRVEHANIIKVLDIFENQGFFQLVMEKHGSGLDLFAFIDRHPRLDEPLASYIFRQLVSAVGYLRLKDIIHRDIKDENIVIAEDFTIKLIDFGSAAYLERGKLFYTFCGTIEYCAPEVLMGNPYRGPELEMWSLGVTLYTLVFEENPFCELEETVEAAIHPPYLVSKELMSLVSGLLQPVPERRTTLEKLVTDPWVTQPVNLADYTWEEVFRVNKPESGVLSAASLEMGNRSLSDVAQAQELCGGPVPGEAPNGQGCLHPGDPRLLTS
UniProt Q96HC4: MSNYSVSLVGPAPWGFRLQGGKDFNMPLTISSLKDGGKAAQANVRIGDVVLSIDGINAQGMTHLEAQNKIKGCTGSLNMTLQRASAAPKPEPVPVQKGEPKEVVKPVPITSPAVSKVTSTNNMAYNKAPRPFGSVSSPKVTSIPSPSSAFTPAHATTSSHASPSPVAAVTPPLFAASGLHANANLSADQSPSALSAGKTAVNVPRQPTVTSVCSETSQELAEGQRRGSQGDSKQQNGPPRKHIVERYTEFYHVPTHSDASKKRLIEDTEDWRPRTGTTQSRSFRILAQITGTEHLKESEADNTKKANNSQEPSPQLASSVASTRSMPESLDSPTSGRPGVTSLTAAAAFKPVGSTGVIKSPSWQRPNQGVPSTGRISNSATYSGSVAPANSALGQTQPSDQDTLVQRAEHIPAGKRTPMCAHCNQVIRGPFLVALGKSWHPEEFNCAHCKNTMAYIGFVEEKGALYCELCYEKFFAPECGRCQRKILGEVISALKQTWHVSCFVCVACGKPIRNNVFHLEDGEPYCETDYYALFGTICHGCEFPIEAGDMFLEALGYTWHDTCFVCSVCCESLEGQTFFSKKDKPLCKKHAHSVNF
UniProt Q15365, whole entry, looked up: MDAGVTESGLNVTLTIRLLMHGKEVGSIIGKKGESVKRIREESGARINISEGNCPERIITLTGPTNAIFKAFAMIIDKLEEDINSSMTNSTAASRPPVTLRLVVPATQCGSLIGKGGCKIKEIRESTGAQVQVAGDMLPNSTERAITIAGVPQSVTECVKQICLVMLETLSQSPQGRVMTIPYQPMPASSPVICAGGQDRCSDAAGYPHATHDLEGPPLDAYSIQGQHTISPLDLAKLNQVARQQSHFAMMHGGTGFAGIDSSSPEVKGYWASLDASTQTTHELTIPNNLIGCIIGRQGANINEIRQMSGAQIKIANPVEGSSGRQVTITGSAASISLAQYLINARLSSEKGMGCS
UniProt Q29RF7: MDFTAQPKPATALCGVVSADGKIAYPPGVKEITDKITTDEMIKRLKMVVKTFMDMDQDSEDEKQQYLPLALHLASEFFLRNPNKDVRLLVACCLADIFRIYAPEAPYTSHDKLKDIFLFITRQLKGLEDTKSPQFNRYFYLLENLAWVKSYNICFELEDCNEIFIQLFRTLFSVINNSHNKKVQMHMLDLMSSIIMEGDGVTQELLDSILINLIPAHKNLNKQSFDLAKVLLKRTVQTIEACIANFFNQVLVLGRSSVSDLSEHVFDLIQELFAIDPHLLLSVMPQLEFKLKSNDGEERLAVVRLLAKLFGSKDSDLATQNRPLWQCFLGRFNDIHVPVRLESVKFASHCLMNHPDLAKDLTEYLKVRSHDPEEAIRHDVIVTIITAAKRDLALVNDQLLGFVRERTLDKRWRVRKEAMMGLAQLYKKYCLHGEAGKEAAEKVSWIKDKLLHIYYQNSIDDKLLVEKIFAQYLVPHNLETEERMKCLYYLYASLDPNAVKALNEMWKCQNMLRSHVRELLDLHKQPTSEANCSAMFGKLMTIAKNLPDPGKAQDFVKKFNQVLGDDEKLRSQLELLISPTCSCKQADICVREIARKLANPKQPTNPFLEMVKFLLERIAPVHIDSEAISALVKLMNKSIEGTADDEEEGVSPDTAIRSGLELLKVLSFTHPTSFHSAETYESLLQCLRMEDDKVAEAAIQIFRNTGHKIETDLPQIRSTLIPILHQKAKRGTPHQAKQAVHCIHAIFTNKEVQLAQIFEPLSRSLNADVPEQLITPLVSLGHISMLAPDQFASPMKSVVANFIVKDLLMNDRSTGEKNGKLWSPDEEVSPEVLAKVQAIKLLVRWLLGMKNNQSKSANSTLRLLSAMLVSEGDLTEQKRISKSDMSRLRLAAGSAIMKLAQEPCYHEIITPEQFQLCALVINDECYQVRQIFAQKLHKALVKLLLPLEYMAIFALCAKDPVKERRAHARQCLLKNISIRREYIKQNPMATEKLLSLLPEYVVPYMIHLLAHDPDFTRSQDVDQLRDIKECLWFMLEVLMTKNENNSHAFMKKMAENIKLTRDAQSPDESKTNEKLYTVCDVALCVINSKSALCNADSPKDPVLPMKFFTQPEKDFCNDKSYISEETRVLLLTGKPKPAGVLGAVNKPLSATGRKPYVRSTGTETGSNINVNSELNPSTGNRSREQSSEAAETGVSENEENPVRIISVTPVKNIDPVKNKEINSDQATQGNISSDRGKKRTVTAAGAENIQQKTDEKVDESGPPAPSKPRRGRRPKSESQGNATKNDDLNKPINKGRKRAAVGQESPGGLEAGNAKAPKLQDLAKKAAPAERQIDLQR
UniProt Q6L8Q7: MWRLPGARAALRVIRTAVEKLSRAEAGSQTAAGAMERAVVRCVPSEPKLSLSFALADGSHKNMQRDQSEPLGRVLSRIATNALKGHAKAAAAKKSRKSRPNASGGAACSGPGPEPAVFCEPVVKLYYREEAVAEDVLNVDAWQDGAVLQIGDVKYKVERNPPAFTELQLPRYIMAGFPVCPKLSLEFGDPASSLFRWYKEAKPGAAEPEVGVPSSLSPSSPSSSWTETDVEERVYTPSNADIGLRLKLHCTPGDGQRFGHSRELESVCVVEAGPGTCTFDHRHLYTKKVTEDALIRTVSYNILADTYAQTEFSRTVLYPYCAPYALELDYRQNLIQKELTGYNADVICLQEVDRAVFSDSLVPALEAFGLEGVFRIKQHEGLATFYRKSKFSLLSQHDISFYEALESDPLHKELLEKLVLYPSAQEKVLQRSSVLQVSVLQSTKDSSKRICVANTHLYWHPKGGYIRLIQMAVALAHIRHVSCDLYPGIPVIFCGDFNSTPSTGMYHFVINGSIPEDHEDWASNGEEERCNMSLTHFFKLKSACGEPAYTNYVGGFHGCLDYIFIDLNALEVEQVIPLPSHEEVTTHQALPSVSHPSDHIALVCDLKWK
UniProt Q13153, whole entry, looked up: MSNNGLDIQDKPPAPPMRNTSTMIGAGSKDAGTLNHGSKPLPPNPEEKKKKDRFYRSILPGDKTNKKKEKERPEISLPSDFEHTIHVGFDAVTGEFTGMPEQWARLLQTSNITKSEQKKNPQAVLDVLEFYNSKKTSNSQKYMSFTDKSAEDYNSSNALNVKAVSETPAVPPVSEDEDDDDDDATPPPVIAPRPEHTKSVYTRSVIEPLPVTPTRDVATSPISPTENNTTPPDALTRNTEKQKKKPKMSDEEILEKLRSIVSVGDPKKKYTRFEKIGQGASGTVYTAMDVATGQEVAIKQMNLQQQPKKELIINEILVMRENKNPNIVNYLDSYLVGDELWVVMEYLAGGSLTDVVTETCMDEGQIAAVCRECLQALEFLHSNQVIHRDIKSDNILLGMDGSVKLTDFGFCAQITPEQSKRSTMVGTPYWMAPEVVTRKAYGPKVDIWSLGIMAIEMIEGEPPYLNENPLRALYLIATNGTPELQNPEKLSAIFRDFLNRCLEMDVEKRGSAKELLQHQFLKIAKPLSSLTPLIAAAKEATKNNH
UniProt P29122: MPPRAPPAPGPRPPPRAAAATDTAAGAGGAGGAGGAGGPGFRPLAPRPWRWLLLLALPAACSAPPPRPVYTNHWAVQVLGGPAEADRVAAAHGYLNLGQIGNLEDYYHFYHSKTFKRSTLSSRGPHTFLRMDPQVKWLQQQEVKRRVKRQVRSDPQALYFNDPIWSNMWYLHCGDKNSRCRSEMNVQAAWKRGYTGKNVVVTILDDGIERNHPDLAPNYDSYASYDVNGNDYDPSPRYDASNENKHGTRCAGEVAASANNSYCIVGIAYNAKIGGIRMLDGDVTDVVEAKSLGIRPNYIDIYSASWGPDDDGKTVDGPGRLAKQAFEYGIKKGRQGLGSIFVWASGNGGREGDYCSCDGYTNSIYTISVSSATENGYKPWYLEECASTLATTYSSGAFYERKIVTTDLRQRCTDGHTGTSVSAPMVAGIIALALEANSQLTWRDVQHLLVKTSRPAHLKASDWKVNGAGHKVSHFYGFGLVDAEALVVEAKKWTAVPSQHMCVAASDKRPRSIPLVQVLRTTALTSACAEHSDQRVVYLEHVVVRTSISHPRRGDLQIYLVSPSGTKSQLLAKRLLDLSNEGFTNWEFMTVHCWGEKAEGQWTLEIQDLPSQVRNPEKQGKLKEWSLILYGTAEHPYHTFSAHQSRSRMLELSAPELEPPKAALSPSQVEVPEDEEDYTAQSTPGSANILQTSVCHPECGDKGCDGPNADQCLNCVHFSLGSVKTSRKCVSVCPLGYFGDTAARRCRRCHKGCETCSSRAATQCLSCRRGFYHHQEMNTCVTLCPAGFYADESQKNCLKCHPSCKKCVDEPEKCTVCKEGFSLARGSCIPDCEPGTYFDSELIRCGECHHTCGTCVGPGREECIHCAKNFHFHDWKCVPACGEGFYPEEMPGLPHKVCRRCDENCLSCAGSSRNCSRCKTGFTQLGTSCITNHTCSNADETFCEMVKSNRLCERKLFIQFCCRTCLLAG

Tests used:
Experiment in all cases: log2 fold change, soluble protein after heating vs DMSO (PISA); higher = thermal stabilisation; K562 cells, 10 uM, 30 min; active = over 0.2 and 3.5 SD of the protein, either way, in both replicates (recomputed)
[1] = compound: CC[C@@H]1C(=O)N(C)c2cnc(Nc3ccc(C(=O)NC4CCN(C)CC4)cc3OC)nc2N1C1CCCC1
How it was run: (§1)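 K562 cells at 2×10^6 cells/mL were given 10 μM compound for 30 min. Aliquots then went through 3 min of heating across 48°C-58°C, were pooled, and were extracted in PBS with 0.5% NP-40 at 4°C, and the supernatant after 21,000xg for 90 min was quantified by TMTpro 16plex LC-MS/MS with channel sums equalised. Thermal stability relative to control samples, from duplicates, is given as log2 fold change.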

volasertib = compound: CC[C@@H]1C(=O)N(C)c2cnc(Nc3ccc(C(=O)N[C@H]4CC[C@H](N5CCN(CC6CC6)CC5)CC4)cc3OC)nc2N1C(C)C [volasertib]
How it was run: as §1

[2] = compound: CC[C@H](C)N1C=C(C2=C(C=C(C=C21)C3=CN=C(C=C3)N4CCNCC4)C(=O)NCC5=C(C=C(NC5=O)C)C)C
How it was run: as §1

epoxomicin = compound: CC[C@H](C)[C@@H](C(=O)N[C@@H]([C@@H](C)O)C(=O)N[C@@H](CC(C)C)C(=O)[C@]1(CO1)C)NC(=O)[C@H]([C@@H](C)CC)N(C)C(=O)C [epoxomicin]
How it was run: as §1

[3] = compound: CCn1c(C(=O)N(C2CC2)C2CC2)cc2c3c(ncn3C)c(Nc3cc(C)n(C)n3)nc21
How it was run: as §1

[4] = compound: CN(C)CC(=O)Nc1ccc2[nH]c(=O)c3ccccc3c2c1
How it was run: as §1

rosiglitazone = compound: CN(CCOC1=CC=C(C=C1)C[C@H]2C(=O)NC(=O)S2)C3=CC=CC=N3 (racemic) [rosiglitazone]
How it was run: as §1

[5] = compound: CN1C2=C(C3=C1C(=O)N(N=C3)CC4=CC(=CC=C4)N)SC(=C2)S(=O)C
How it was run: as §1

[6] = compound: CCn1cc(-c2ccnc3[nH]c(-c4cccc(CN(C)C)c4)cc23)c(-c2ccc(NC(=O)N(C)C)cc2)n1
How it was run: as §1

[7] = compound: CN1CCC(CNc2ccc3ncc(-c4cccc(OC(F)(F)F)c4)n3n2)CC1
How it was run: as §1

Measured: log2 fold change

PBLD (UniProt P30039)
inactive: [1] 0.03 | volasertib 0.02 | [2] 0.006 | epoxomicin 0.014 | [3] -0.02 | [4] 0.009 | rosiglitazone -0.026 | [5] -0.086

PDE4DIP isoform 4 (UniProt Q5VU43)
inactive: [1] 0.013 | volasertib 0.005 | [2] -0.071 | epoxomicin -0.012 | [6] -0.009 | [4] -0.035 | [5] -0.046 | [7] 0.006

PCYOX1 (UniProt Q9UHG3)
inactive: [1] 0.05 | volasertib 0.025 | [2] -0.025 | epoxomicin 0.014 | [3] -0.017 | [6] -0.034 | [4] -0.008 | rosiglitazone 0.017 | [5] -0.038 | [7] 0.111

PASK (UniProt Q96RG2)
inactive: [1] 0.035 | volasertib -0.111 | [2] -0.015 | epoxomicin 0.01 | [3] 0.017 | [6] 0 | [4] 0.017 | rosiglitazone 0.1 | [5] 0.068 | [7] -0.033

Fetched one by one from the entries so far, 2 records:
PASK (UniProt Q96RG2)
inactive: [1] 0.035 | volasertib -0.111 | [2] -0.015 | epoxomicin 0.01 | [3] 0.017 | [6] 0 | [4] 0.017 | rosiglitazone 0.1 | [5] 0.068 | [7] -0.033

PCYOX1 (UniProt Q9UHG3)
inactive: [1] 0.05 | volasertib 0.025 | [2] -0.025 | epoxomicin 0.014 | [3] -0.017 | [6] -0.034 | [4] -0.008 | rosiglitazone 0.017 | [5] -0.038 | [7] 0.111

The list goes on:

PDS5B (UniProt Q9NTI5)
inactive: [1] -0.004 | volasertib 0.024 | [2] 0.12 | epoxomicin 0.105 | [6] 0.103 | [4] 0.079 | [5] 0.131 | [7] -0.41

PDLIM5 (UniProt Q96HC4)
inactive: [1] -0.075 | volasertib -0.151 | [2] 0.027 | epoxomicin 0.043 | [3] -0.014 | [6] -0.075 | [4] 0.013 | rosiglitazone 0.034 | [5] -0.038 | [7] -0.06

PDIA6 isoform 2 (UniProt Q15084)
inactive: [1] -0.031 | volasertib 0.066 | [2] -0.008 | epoxomicin 0.059 | [3] 0.038 | [6] 0.013 | [4] -0.046 | rosiglitazone -0.022 | [5] 0 | [7] 0.042

PCBP2 isoform 3 (UniProt Q15366)
active: volasertib -0.263
inactive: [1] -0.069 | [2] 0.071 | epoxomicin 0.013 | [6] -0.003 | [4] 0.043 | [5] -0.001 | [7] -0.081

PAGE4 (UniProt O60829)
inactive: [1] -0.029 | [2] 0.203 | epoxomicin 0.208 | [3] 0.037 | [6] 0.055 | [4] -0.059 | rosiglitazone -0.067 | [7] -0.441

PDCD6IP (UniProt Q8WUM4)
inactive: [1] -0.219 | [2] 0.166 | epoxomicin 0.082 | [6] -0.06 | [4] 0.116 | [5] 0.043 | [7] -0.256
active: volasertib -0.694

PAK4 (UniProt O96013)
inactive: [1] -0.026 | volasertib -0.088 | [2] -0.026 | epoxomicin -0.017 | [6] -0.059 | [4] -0.012 | [5] 0.049 | [7] -0.083

PATL1 (UniProt Q86TB9)
active: [7] -0.445
inactive: [1] 0.109 | volasertib 0.013 | epoxomicin -0.041 | [6] 0.051 | [4] 0.007 | [5] 0.104

PCK2 (UniProt Q16822)
inactive: [1] 0.012 | volasertib -0.076 | [2] 0.033 | epoxomicin 0.059 | [6] -0.07 | [4] 0 | [5] -0.094 | [7] 0.027

PDIK1L (UniProt Q8N165)
inactive: [1] 0.123 | volasertib 0.108 | [2] -0.056 | epoxomicin -0.128 | [4] -0.028 | [5] 0.02

PARL (UniProt Q9H300)
inactive: [1] -0.059 | volasertib -0.008 | [2] -0.009 | epoxomicin -0.076 | [6] -0.062 | [4] -0.035 | [5] -0.004 | [7] -0.134

PEX13 (UniProt Q92968)
inactive: [1] -0.053 | volasertib -0.049 | [2] -0.038 | epoxomicin -0.009 | [6] 0.047 | [4] 0.019 | [5] 0.02 | [7] -0.378

PCID2 (UniProt Q5JVF3)
inactive: [1] -0.032 | volasertib 0.016 | [2] 0.072 | epoxomicin 0.027 | [6] 0.035 | [4] -0.021 | [5] 0.055 | [7] -0.086

PDIA4, A0A499FI48
inactive: [1] -0.009 | volasertib -0.045 | [6] 0.164 | [4] 0.057 | [5] 0.112 | [7] 0.155

PCBP1 (UniProt Q15365)
active: volasertib -0.268
inactive: [1] -0.1 | [2] 0.04 | epoxomicin 0.025 | [6] 0.025 | [4] 0.039 | [5] 0.009 | [7] -0.129

PDPK1 (UniProt O15530)
inactive: [1] -0.136 | volasertib -0.232 | [2] 0.034 | epoxomicin 0.055 | [6] -0.05 | [4] 0.034 | [5] -0.008 | [7] -0.275

PACS1 (UniProt Q6VY07)
inactive: [1] 0 | volasertib -0.03 | [2] 0.208 | epoxomicin -0.045 | [6] -0.006 | [4] 0.006 | [5] 0.029 | [7] 0.014

PDS5A (UniProt Q29RF7)
inactive: [1] -0.213 | volasertib -0.447 | [2] 0.137 | epoxomicin 0.29 | [6] 0.012 | [4] -0.107 | [5] 0.042 | [7] -0.203

PDE12 (UniProt Q6L8Q7)
inactive: [1] -0.035 | volasertib -0.056 | [2] -0.008 | epoxomicin 0.04 | [6] -0.038 | [4] 0.026 | [5] -0.078 | [7] -0.014

PCBP2 (UniProt F8VRH0)
inactive: [1] -0.005 | volasertib -0.051 | [2] 0.165 | epoxomicin -0.252 | [6] -0.201 | [4] 0.139 | [5] -0.306 | [7] -0.149

PAK1 isoform 2 (UniProt Q13153)
inactive: [1] 0.032 | volasertib -0.022 | [2] -0.024 | epoxomicin 0.046 | [6] -0.122 | [4] 0.064 | [5] -0.062 | [7] -0.031

PAICS (UniProt D6RF62)
inactive: [1] -0.035 | volasertib 0.026 | [6] 0.25 | [5] -0.102 | [7] -0.839

PCF11 (UniProt O94913)
inactive: [1] -0.014 | volasertib -0.114 | [6] 0.038 | [4] -0.078 | [7] -0.03

PAFAH1B3 (UniProt Q15102)
inactive: [1] -0.017 | volasertib 0.011 | [2] 0.042 | epoxomicin 0.063 | [6] -0.098 | [4] 0.069 | [5] -0.012 | [7] 0.001

PCSK6 isoform 7 (UniProt P29122)
inactive: [1] -0.143 | volasertib -0.077 | [2] -0.089 | [6] 0.107 | [4] -0.049 | rosiglitazone 0.008 | [7] -0.158

PARD3 (UniProt Q8TEW0)
inactive: [1] 0.1 | volasertib 0.066 | [6] 0.023 | [7] 0.143

PCNX1 (UniProt Q96RV3)
inactive: [1] 0.331 | volasertib 0.132 | [2] -0.004 | epoxomicin -0.017 | [4] -0.064
